# Source: PubChem BioAssay AID2685 (National Center for Advancing Translational Sciences (NCATS), 2010)
# The list shows a part of the results. These are further read-outs of the screen, such as a control signal, another cell line or another target. No call is given for them. Most of these compounds were active or inconclusive in the main read-out, so they are no random draw. Potencies come from curve fits of mixed quality, noted in brackets.
# Experiment: qHTS Assay for Lipid Storage Modulators in Drosophila S3 Cells;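 as to cell number change: cells counted by Cell Tracker Red CMTPX staining in the red channel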
# Settings: BODIPY lipid droplet fluorescence, 18-24 h; for cell number change: measured here: cell count max response, cells fed with added oleic acid
# Method in brief: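 Laser-scanning cytometry quantifies lipid droplet accumulation (500–530 nm total intensity; droplet/cell object ratio) in oleic acid-fed (400 uM added) Drosophila S3 cells treated with a concentration series. 20 uM Triacsin C defined 100% inhibition.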
# [1] = measured here: lipid fluorescence (Fed channel) AC50, cells fed with added oleic acid
# [2] = measured here: cell number channel AC50, cells fed with added oleic acid
Structure (SMILES),cell number change,AC50 [1],AC50 [2]
Cc1no[n+]([O-])c1COc1cccc(/C=N/Nc2nncn2N)c1,-21.9%,"29.1 µM [falling, single point]",–
COc1ccc(C2C(C(=O)c3ccco3)=C(O)C(=O)N2CC2CCCO2)cc1 (stereo not given),43.7%,"10.3 µM [rising, partial curve]","10.3 µM [rising, partial curve]"
O=C(NCCO)c1nc(NCCO)c2ccccc2n1,-108%,–,"20.6 µM [falling, partial curve]"
NC(=O)c1ccc(NC(=O)C2CCCO2)cc1 (stereo not given),-1.85%,"3.26 µM [falling, partial curve, poor fit]",–
Cc1cc(=O)n2nc(N3CCCC(C(=O)NCCc4ccccc4)C3)sc2n1 (stereo not given),30.6%,–,"9.2 µM [rising, single point]"
CCc1cccc(NC(=O)C2CCN(S(=O)(=O)c3c(C)noc3C)CC2)c1,-31.1%,"23.1 µM [falling, single point]","23.1 µM [falling, single point]"
CC(=O)NCCNC(=O)CCNC(=O)c1ccc(Cl)cc1,-30%,"20.6 µM [falling, partial curve]","0.731 µM [falling, full curve, poor fit]"
Cn1c(=O)n(C)c2cc(S(=O)(=O)NCc3ccco3)ccc21,22.5%,–,"0.164 µM [rising, full curve, poor fit]"
O=C(COC(=O)c1ccccc1F)NC1CCCC1,-25.9%,"25.9 µM [falling, single point]",–
CC1CCCCN1S(=O)(=O)c1ccc(NC(=O)c2cccs2)cc1 (stereo not given),–,"7.31 µM [rising, partial curve]",–
CC(C)c1cc(C(C)C)c(S(=O)(=O)NNC(=O)c2ccncc2)c(C(C)C)c1,25.1%,"16.4 µM [rising, partial curve, poor fit]",–
CCOc1ccc(S(=O)(=O)N2CCCCC2)cc1NC(=O)C1CCC1,20.2%,–,–
COc1ccc(-n2cc(CNCCN3CCOC3=O)c(-c3ccccc3Cl)n2)cc1,22.7%,"6.51 µM [rising, full curve, poor fit]",–
CCOc1ccc(NC(=O)CN(C)C(=O)c2cc3c(s2)CCC(C)C3)cc1OCC (stereo not given),2.85%,"8.2 µM [falling, partial curve]",–
O=C(NCC(c1ccco1)N1CCOCC1)C1CCCCC1 (stereo not given),-30.5%,"29.1 µM [falling, partial curve, poor fit]",–
O=C(NC1CCCC1)c1cc(-c2ccc(F)cc2)on1,14.8%,–,–
Cc1cc(=O)oc(C)c1C(=O)NCC1CCCO1 (stereo not given),-26.7%,"29.1 µM [falling, single point]","0.0731 µM [falling, full curve, poor fit]"
CC(C)c1ccc(/C=C(/C#N)c2nnc(NC(=O)c3ccccc3)s2)cc1,-5.55%,"23.1 µM [rising, partial curve]",–
O=C(COc1ccccc1)Nc1ccc(S(=O)(=O)NCc2ccco2)cc1,6.88%,–,–

Structure (SMILES),cell number change,AC50 [1],AC50 [2]
COc1cc(-c2noc(CCCC(=O)NCc3ccccc3)n2)cc(OC)c1OC,44.7%,–,"0.092 µM [rising, full curve, poor fit]"
CC(C)C(C)NC(=O)CN1C(=O)NC(c2ccccc2)(c2ccccc2)C1=O (stereo not given),–,"29.1 µM [rising, partial curve]",–
COc1cc2[nH]c3c(N4CCN(c5ccccn5)CC4)ncnc3c2cc1OC,-53.4%,"29.1 µM [falling, single point]","25.9 µM [falling, single point]"
CCOC(=O)Nc1cccc(NC(=O)c2ccccc2F)c1,-1.09%,"0.731 µM [rising, single point]",–
COc1ccc(-c2nc3c4ccccc4ccn3c2CN2CCOCC2)cc1OC,-16.9%,"25.9 µM [falling, single point]",–
CCC(c1nnnn1C(C)(C)C)N1CCN(C2CCCC2)CC1 (stereo not given),-209%,"25.9 µM [falling, partial curve]","29.1 µM [falling, partial curve]"
CC(C)SCCCOc1ccc(C(C)(C)C)cc1,-0.445%,–,"0.164 µM [falling, full curve, poor fit]"
CCOC(=O)N/N=C(/C)c1ccc(N2C(=O)C3CCCCC3C2=O)cc1 (stereo not given),-19.3%,"0.731 µM [falling, partial curve, poor fit]",–
CCOC(=O)c1c(NC(=O)c2ccco2)sc2c1CCCCC2,16.4%,–,–
O=C(CNC1CCCCCC1)c1cccs1,–,"0.00461 µM [rising, full curve, poor fit]",–
COC(=O)C1=C(C)NC(=O)C1(NS(=O)(=O)c1ccc(C)cc1)C(F)(F)F (stereo not given),-17.7%,"29.1 µM [falling, single point]","0.651 µM [falling, full curve, poor fit]"
O=C(Nc1ccc(Cl)c(Cl)c1)Nc1cc(S(=O)(=O)N2CCOCC2)ccc1N1CCCC1,8.61%,–,–
COc1ccc(S(=O)(=O)N2CCN(c3ccc(F)cc3)CC2)cc1C(=O)N1CCCC1,6.25%,–,–
CCn1c(=O)c2cc(C(=O)N(C)c3cc(C)ccc3OC)sc2c2ccccc21,-12.1%,"0.651 µM [falling, single point]",–
O=C(O)c1ccc(-n2c(-c3ccccc3)n[nH]c2=S)cc1,–,–,"3.66 µM [falling, single point]"
CC1CN(S(=O)(=O)c2ccc(C(=O)OCc3ccc(C#N)cc3)cc2)CC(C)O1 (stereo not given),-2.81%,"2.06 µM [rising, partial curve]",–
Fc1ccc2[nH]c3c(N4CCSCC4)ncnc3c2c1,-1.66%,"1.46 µM [rising, partial curve]","1.3 µM [rising, partial curve]"
CCc1nn(C(C)C(=O)N2CCc3ccccc3C2)c(=O)c2cc3occc3n12 (stereo not given),39.7%,"1.16 µM [rising, single point]","29.1 µM [rising, single point]"
CCCCN(C(=O)C1=NN(c2ccccc2)C(=O)CC1)c1c(N)n(CC(C)C)c(=O)[nH]c1=O,-2.38%,"20.6 µM [rising, single point]",–

# An excerpt from above in order of SMILES length, rising:
Structure (SMILES),cell number change,AC50 [1],AC50 [2]
O=C(CNC1CCCCCC1)c1cccs1,–,"0.00461 µM [rising, full curve, poor fit]",–
CCOC(=O)c1c(NC(=O)c2ccco2)sc2c1CCCCC2,16.4%,–,–
CCOC(=O)N/N=C(/C)c1ccc(N2C(=O)C3CCCCC3C2=O)cc1 (stereo not given),-19.3%,"0.731 µM [falling, partial curve, poor fit]",–
